Some entries share one result that the patent states for a list of compounds. At least one structure is not confirmed: it was looked up by name or label, or the drawing left a doubt.
How the values were obtained:
[1] = system: Laodelphax striatellus 3rd-instar nymphs; test: Insecticidal test on Laodelphax striatellus (rice seedling dip); settings: 500 ppm, 8 days after inoculation
[2] = system: Plutella xylostella; test: Insecticidal test on Plutella xylostella (Chinese cabbage seedling dip); settings: 500 ppm, 6 days after dip treatment
Procedure, shortened: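 Compounds dispersed in water at 500 ppm; Chinese cabbage seedlings bearing eggs laid by released adults over 2 days were dipped ~30 s, air-dried and kept at 25° C. Dead and live insects counted 6 days later; corrected mortality versus untreated plot scored A (100%), B (90–99%), C (80–89%), D (50–79%).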

[3] = system: Spodoptera litura 2nd-instar larvae; test: Insecticidal test on Spodoptera litura (cabbage leaf dip); settings: 500 ppm, 8 days after inoculation
[4] = system: adult Ctenocephalides felis fleas; test: Contact activity against adult Ctenocephalides felis (treated surface, motility by machine vision, 24 h)
From the text: Example 7: Screening Method to Test Contact Activity of Compounds of Formula (I) Against Adult Ctenocephalides felis

[5] = system: adult Ctenocephalides felis fleas; test: Ingestion activity (flea membrane feeding, blood feeding) against adult Ctenocephalides felis; settings: bovine blood, 24h post treatment
From the text: Example 6: Screening Method to Test Ingestion Activity of Compounds of Formula (I) Against Adult Ctenocephalides felis
The four structurally closest prior art compounds (A), (B), (C) and (D) specifically excluded from the scope of formula (I) were characterized vis-a-vis selected compounds of formula (I) with regard to their potency in in vitro screening assays against fleas (Ctenocehalides felis) and ticks (Rhipicephalus sanguineus).
It is important to note that compounds that show better activity versus ticks are more desirable in the animal health field, as ticks are more difficult to control than fleas. Noteworthy, in particular with regard to fleas the illustrated comparative data are based on a flea membrane feeding (ingestion, blood feeding) assay. Data from this assay are more relevant for compounds intended to be delivered systemically to an animal via oral or injectable routes. Membrane feeding assays differ to primary screening laboratory contact assays in that the latter only measure the effect of the direct contact of selected compounds on the parasite, such as the flea or the tick. The information derived from laboratory contact assays is strictly limited to the ability of the compound to be absorbed through the parasite surface and to reach its molecular target, and no information can be gleaned from these contact assays as to whether the compound would also be active when presented orally to the ectoparasite itself in a blood meal, such as with the membrane feeding assay, and certainly not when administered orally to an animal host (e.g. “in vivo”) with subsequent exposure to the ectoparasite.
However, as explained above, spectrum of action against this range of species (i.e. fleas and ticks) is a desirable property of ectoparasiticides for veterinary use. In the following table 1 comparative experimental data of the in vitro assays are shown regarding flea membrane feeding (ingestion, blood feeding) activity against Ctenocephalides felis and contact activity against Rhipicephalus sanguineus.

[6] = system: Aedes aegypti L1 larvae; test: Activity against larvae of Aedes aegypti (L1 larvae, 384-well, image-based mortality); settings: 48 h at 27° C., read-out: EC50 (percentage of mortality, A. aegypti L1 larvae)
Experimental: Example 3: Screening Method to Test Activity of Compounds of Formula (I) Against Larvae of Aedes aegypti
Eight A. aegypti L1 larvae in a total volume of 64 μL water were added to 384-well microplates containing compounds formulated in 100% DMSO. The plates were incubated for 48 h at 27° C. Individual well images were acquired and analyzed using a pipeline to quantitatively assess the amount of larvae biomass accumulating at the bottom of the well. The efficacy of a compound at a given dose is expressed as “percentage of mortality” and determined by comparison to average biomass descriptors of positive and negative control wells containing 1.0 μM Fipronil or DMSO only, respectively. Dose response assay were conducted to determine an EC50 value.

[7] = system: Myzus persicae; test: Insecticidal test on Myzus persicae (foliar application on potted Chinese cabbage); settings: 500 ppm, 6 days after application

Structure (SMILES) | activity level (corrected mortality rate), Laodelphax striatellus [1] | activity level (corrected mortality rate), Plutella xylostella [2] | activity level (corrected mortality rate), Spodoptera litura [3] | EC80 (% motility reduction, adult C. felis, contact) [4] | EC80 (% motility reduction, adult C. felis, ingestion via membrane feeding) [5] | EC50 [6] [nM] | control efficacy level (control rate), Myzus persicae [7]
CCS(=O)(=O)c1cc(-c2cc(C3CC3)ccn2)cnc1-c1nc2cc(C(F)(F)C(F)(F)F)nnc2n1C [compound 4] | A (the corrected mortality rate is 100%) | A (the corrected mortality rate is 100%) | A (the corrected mortality rate is 100%) | less than 1 μM | – | – | –
CCS(=O)(=O)c1cc(-c2ccc(C3(F)CC3)cc2)cnc1-c1nc2cc(C(F)(F)C(F)(F)F)nnc2n1C [compound 19] | – | A (the corrected mortality rate is 100%) | A (the corrected mortality rate is 100%) | – | less than 1 μM | < 40 | –
CCn1cc(C(F)(F)F)cc2nc(-c3ncc(-c4ccc(C5(C(F)(F)F)CC5)cc4)cc3S(=O)(=O)CC)cc1-2 [compound 25] | – | A (the corrected mortality rate is 100%) | A (the corrected mortality rate is 100%) | – | less than 1 μM | < 40 | –
CCS(=O)(=O)c1cc(-c2cc(C3CC3)ccn2)cnc1-c1nc2cc(S(=O)(=O)C(F)(F)F)ccc2o1 [compound 35] | – | A (the corrected mortality rate is 100%) | A (the corrected mortality rate is 100%) | less than 1 μM | – | – | –
CCS(=O)(=O)c1cc(-c2ccc(C3(C(F)(F)F)CC3)cc2)cnc1-c1cc2n(CC(F)F)cc(C(F)(F)F)cc-2n1 [compound 63] | – | A (the corrected mortality rate is 100%) | A (the corrected mortality rate is 100%) | – | less than 1 μM | – | –
CCn1cc(C(F)(F)F)cc2nc(-c3ncc(-c4ccc(C5(C(F)(F)F)CC5)cc4)cc3S(=O)(=O)CC)c(F)c1-2 [compound 66] | – | A (the corrected mortality rate is 100%) | A (the corrected mortality rate is 100%) | – | less than 1 μM | < 40 | –
CCn1cc(C(F)(F)F)cc2nc(-c3ncc(-c4ccc(C5(C#N)CC5)cc4)cc3S(=O)(=O)CC)c(F)c1-2 [compound 68] | – | A (the corrected mortality rate is 100%) | A (the corrected mortality rate is 100%) | – | less than 1 μM | < 40 | –
CCn1cc(C(F)(F)F)cc2nc(-c3ncc(-c4ccc(C5CC5)nc4)cc3S(=O)(=O)CC)c(F)c1-2 [compound 70] | – | A (the corrected mortality rate is 100%) | A (the corrected mortality rate is 100%) | less than 1 μM | – | – | –
CCS(=O)(=O)c1cc(-c2ccc(C3(C#N)CC3)cc2)cnc1-c1nc2cc3c(cc2n1C)OC(F)(F)O3 [compound 130] | A (the corrected mortality rate is 100%) | A (the corrected mortality rate is 100%) | A (the corrected mortality rate is 100%) | less than 1 μM | – | – | A (the control rate is 100%)
CCS(=O)(=O)c1cc(-c2ncc(C3CC3)nn2)cnc1-c1nc2cc(C(F)(F)C(F)(F)F)cnc2n1C [compound 146] | – | A (the corrected mortality rate is 100%) | A (the corrected mortality rate is 100%) | – | less than 1 μM | – | A (the control rate is 100%)
CCS(=O)(=O)c1cc(-c2ccc(C3CC3)nn2)cnc1-c1nc2cc(C(F)(F)C(F)(F)F)cnc2n1C [compound 153] | A (the corrected mortality rate is 100%) | A (the corrected mortality rate is 100%) | A (the corrected mortality rate is 100%) | less than 1 μM | less than 1 μM | – | A (the control rate is 100%)
CCS(=O)(=O)c1cc(-c2ccc(C3(OC(F)(F)F)CC3)cc2)cnc1-c1nc2cc(C(F)(F)C(F)(F)F)nnc2n1C [compound 156] | A (the corrected mortality rate is 100%) | A (the corrected mortality rate is 100%) | A (the corrected mortality rate is 100%) | – | less than 1 μM | – | A (the control rate is 100%)
CCS(=O)(=O)c1cc(-c2nccc(C3CC3)n2)cnc1-c1nc2cc(C(F)(F)C(F)(F)F)cnc2n1C [compound 165] | A (the corrected mortality rate is 100%) | A (the corrected mortality rate is 100%) | A (the corrected mortality rate is 100%) | less than 1 μM | less than 1 μM | – | A (the control rate is 100%)
CCS(=O)(=O)c1cc(-c2cc(C3CC3)nc(C)n2)cnc1-c1nc2cc(C(F)(F)C(F)(F)F)cnc2n1C [compound 166] | A (the corrected mortality rate is 100%) | A (the corrected mortality rate is 100%) | A (the corrected mortality rate is 100%) | – | less than 1 μM | – | A (the control rate is 100%)
CCS(=O)(=O)c1cc(-c2cnccc2C2CC2)cnc1-c1nc2cc(C(F)(F)C(F)(F)F)cnc2n1C [compound 168] | – | A (the corrected mortality rate is 100%) | – | less than 1 μM | – | – | A (the control rate is 100%)
CCS(=O)(=O)c1cc(-c2cccnc2C2CC2)cnc1-c1nc2cc(C(F)(F)C(F)(F)F)cnc2n1C [compound 169] | A (the corrected mortality rate is 100%) | A (the corrected mortality rate is 100%) | A (the corrected mortality rate is 100%) | less than 1 μM | – | – | A (the control rate is 100%)
CCS(=O)(=O)c1cc(-c2cccc(C3(C#N)CC3)n2)cnc1-c1nc2cc(C(F)(F)F)n(C3CC3)c(=O)c2n1C [compound 177] | A (the corrected mortality rate is 100%) | A (the corrected mortality rate is 100%) | A (the corrected mortality rate is 100%) | – | less than 1 μM | – | A (the control rate is 100%)
CCS(=O)(=O)c1cc(-c2ccc(C3CC3)nc2)cnc1-c1nc2cc(C(F)(F)C(F)(F)F)cn(CC(F)F)c-2c1F [compound 180] | A (the corrected mortality rate is 100%) | A (the corrected mortality rate is 100%) | A (the corrected mortality rate is 100%) | – | less than 1 μM | – | A (the control rate is 100%)

Reference: US12435083B2, “Cyclopropyl-(hetero)aryl-substituted ethylsulphonyl-pyridine derivatives” (BOEHRINGER INGELHEIM VETMEDICA GMBH, priority 2021, dated 2025)
